Assay results: PubChem BioAssay AID248 (DTP/NCI, 2004)
The list does not hold the whole screen: it gathers tests that were run many times, whatever their T/C, doses with no T/C, and many T/C values between a quarter and a half above the control. Further doses and runs are listed elsewhere. T/C gives the treated animals as a percentage of the vehicle group. Some entries give survivors of the animals treated and no T/C: the source holds a T/C of zero for them, seemingly a mark for toxic or unscored doses. Some doses without a T/C left all or most animals alive at the check, yet need not have been tolerated: survival well below the control is almost never listed, so the zero probably covers shortened survival too. Survivors were counted at the toxicity check, usually on the fifth day, unless a day is given; later deaths do not show. Schedule codes are those of the source, taken here to give the interval after Q, in days (D) or hours (H), and the number of doses after X. Some entries were tested several times; the values are given in rising order. Some schedule codes hold Z or #, which are not explained here. Where survival is the endpoint, this PubChem deposit counts one and a half times the control or more as active, and values a quarter to a half above the control carry no call in these data; other NCI protocols may use other cut-offs. Some T/C values carry the count of animals alive at the toxicity check (mostly the fifth day); without a count, all were alive then.

Test system: L1210 leukemia ip in BDF1 mice, survival T/C
Test: NCI In Vivo Anticancer Drug Screen. Data for tumor model L1210 Leukemia (intraperitoneal) in B6D2F1 (BDF1) mice
Conditions: higher T/C = longer survival

O=NN(CCCl)C(=O)NCCCl was tested, and the survivor count (T/C endpoint: mean survival time, dose: 96.0 mg/kg/injection, schedule: Q01DX009 (sc), vehicle: saline) was 0 of 10, the survivor count (T/C endpoint: mean survival time, dose: 96.0 mg/kg/injection, schedule: Q## X003 (ip), vehicle: saline) was 8 of 10 and the survivor count (T/C endpoint: mean survival time, dose: 96.0 mg/kg/injection, schedule: Q## X003 (oral), vehicle: saline) was 8 of 10. For the same molecule, the survivor count (T/C endpoint: mean survival time, dose: 96.0 mg/kg/injection, schedule: Q## X008 (ip), vehicle: saline) was 10 of 10, the survivor count (T/C endpoint: mean survival time, dose: 96.0 mg/kg/injection, schedule: Q## X024 (ip), vehicle: saline) was 10 of 10 and the survivor count (T/C endpoint: mean survival time, dose: 96.0 mg/kg/injection, schedule: Q## X024 (oral), vehicle: saline) was 9 of 10. The survivor count (T/C endpoint: mean survival time, dose: 100.0 mg/kg/injection, schedule: Q01DX Z (ip), vehicle: carboxymethylcellulose (CMC)) was 0 of 6, the survivor count (T/C endpoint: mean survival time, dose: 128.0 mg/kg/injection, schedule: Q01DX Z (iv), vehicle: saline) was 6 of 6 and the survivor count (T/C endpoint: mean survival time, dose: 128.0 mg/kg/injection, schedule: Q01DX Z (oral), vehicle: saline) was 5 of 6. The survivor count (T/C endpoint: mean survival time, dose: 128.0 mg/kg/injection, schedule: Q#A X Z (oral), vehicle: saline) was 0 of 6, the survivor count (T/C endpoint: mean survival time, dose: 192.0 mg/kg/injection, schedule: Q01DX001 (ip), vehicle: saline) was 0 of 10 and 3 of 10 and the survivor count (T/C endpoint: mean survival time, dose: 192.0 mg/kg/injection, schedule: Q01DX001 (oral), vehicle: saline) was 0 of 10. The survivor count (T/C endpoint: mean survival time, dose: 192.0 mg/kg/injection, schedule: Q01DX005 (ip), vehicle: saline) was 0 of 10, the survivor count (T/C endpoint: mean survival time, dose: 192.0 mg/kg/injection, schedule: Q01DX005 (oral), vehicle: saline) was 0 of 10 and the survivor count (T/C endpoint: mean survival time, dose: 192.0 mg/kg/injection, schedule: Q01DX009 (ip), vehicle: saline) was 0 of 10. The survivor count (T/C endpoint: mean survival time, dose: 192.0 mg/kg/injection, schedule: Q01DX009 (oral), vehicle: saline) was 0 of 10, the survivor count (T/C endpoint: mean survival time, dose: 192.0 mg/kg/injection, schedule: Q01DX009 (sc), vehicle: saline) was 0 of 10 and the survivor count (T/C endpoint: mean survival time, dose: 192.0 mg/kg/injection, schedule: Q03DX Z (oral), vehicle: saline) was 6 of 6. The survivor count (T/C endpoint: mean survival time, dose: 192.0 mg/kg/injection, schedule: Q## X003 (ip), vehicle: saline) was 0 of 10, the survivor count (T/C endpoint: mean survival time, dose: 192.0 mg/kg/injection, schedule: Q## X003 (oral), vehicle: saline) was 3 of 10 and the survivor count (T/C endpoint: mean survival time, dose: 192.0 mg/kg/injection, schedule: Q## X008 (ip), vehicle: saline) was 0 of 10. For the same molecule, the survivor count (T/C endpoint: mean survival time, dose: 192.0 mg/kg/injection, schedule: Q## X008 (oral), vehicle: saline) was 0 of 10, the survivor count (T/C endpoint: mean survival time, dose: 192.0 mg/kg/injection, schedule: Q## X024 (ip), vehicle: saline) was 0 of 10 and the survivor count (T/C endpoint: mean survival time, dose: 192.0 mg/kg/injection, schedule: Q## X024 (oral), vehicle: saline) was 1 of 10. For the same molecule, the survivor count (T/C endpoint: mean survival time, dose: 256.0 mg/kg/injection, schedule: Q01DX Z (oral), vehicle: saline) was 4 of 6, the survivor count (T/C endpoint: mean survival time, dose: 384.0 mg/kg/injection, schedule: Q01DX001 (ip), vehicle: saline) was 0 of 10 and the survivor count (T/C endpoint: mean survival time, dose: 384.0 mg/kg/injection, schedule: Q01DX001 (oral), vehicle: saline) was 0 of 10. For the same molecule, the survivor count (T/C endpoint: mean survival time, dose: 384.0 mg/kg/injection, schedule: Q01DX009 (sc), vehicle: saline) was 0 of 10, the survivor count (T/C endpoint: mean survival time, dose: 384.0 mg/kg/injection, schedule: Q03DX Z (oral), vehicle: saline) was 6 of 6 and the survivor count (T/C endpoint: mean survival time, dose: 384.0 mg/kg/injection, schedule: Q## X003 (ip), vehicle: saline) was 0 of 10. The survivor count (T/C endpoint: mean survival time, dose: 384.0 mg/kg/injection, schedule: Q## X003 (oral), vehicle: saline) was 1 of 10, the survivor count (T/C endpoint: mean survival time, dose: 384.0 mg/kg/injection, schedule: Q## X008 (ip), vehicle: saline) was 0 of 10 and the survivor count (T/C endpoint: mean survival time, dose: 384.0 mg/kg/injection, schedule: Q## X008 (oral), vehicle: saline) was 0 of 10. For the same molecule, the survivor count (T/C endpoint: mean survival time, dose: 384.0 mg/kg/injection, schedule: Q## X024 (ip), vehicle: saline) was 0 of 10, the survivor count (T/C endpoint: mean survival time, dose: 384.0 mg/kg/injection, schedule: Q## X024 (oral), vehicle: saline) was 0 of 10 and the survivor count (T/C endpoint: mean survival time, dose: 768.0 mg/kg/injection, schedule: Q03DX Z (oral), vehicle: saline) was 3 of 6. The T/C (T/C endpoint: median survival time, dose: 1.5 mg/kg/injection, schedule: Q01DX009 (ip), vehicle: saline) was 130 % of control, the T/C (T/C endpoint: median survival time, dose: 8.0 mg/kg/injection, schedule: Q01DX001 (ip), vehicle: Klucel (hydroxypropylcellulose) (HPC)) was 126 and 144 % of control and the T/C (T/C endpoint: median survival time, dose: 10.0 mg/kg/injection, schedule: Q01DX001 (ip), vehicle: saline, evaluated on day 7) was 145 % of control. For the same molecule, the T/C (T/C endpoint: median survival time, dose: 10.0 mg/kg/injection, schedule: Q01DX001 (ip), vehicle: saline, evaluated on day 35) was 140 % of control, the T/C (T/C endpoint: median survival time, dose: 10.0 mg/kg/injection, schedule: Q01DX001 (ip), vehicle: saline, evaluated on day 60) was 144 % of control and the T/C (T/C endpoint: median survival time, dose: 12.0 mg/kg/injection, schedule: Q01DX009 (ip), vehicle: saline, evaluated on day 30) was 147 % of control [7 of 8 alive]. For the same molecule, the T/C (T/C endpoint: median survival time, dose: 12.0 mg/kg/injection, schedule: Q01DX009 (ip), vehicle: saline, evaluated on day 32) was 135 % of control, the T/C (T/C endpoint: median survival time, dose: 15.0 mg/kg/injection, schedule: Q01DX001 (ip), vehicle: saline) was 144 % of control and the T/C (T/C endpoint: median survival time, dose: 15.0 mg/kg/injection, schedule: Q01DX009 (ip), vehicle: saline + alcohol) was 126 and 135 % of control. The survivor count (T/C endpoint: median survival time, dose: 48.0 mg/kg/injection, schedule: Q01DX009 (ip), vehicle: saline) was 6 of 8 and 7 of 8, the T/C (T/C endpoint: median survival time, dose: 64.0 mg/kg/injection, schedule: Q01DX001 (ip), vehicle: Klucel (hydroxypropylcellulose) (HPC)) was 134 % of control and the survivor count (T/C endpoint: median survival time, dose: 80.0 mg/kg/injection, schedule: Q01DX001 (ip), vehicle: saline + alcohol) was 3 of 6 and 5 of 6. The survivor count (T/C endpoint: median survival time, dose: 80.0 mg/kg/injection, schedule: Q01DX001 (ip), vehicle: saline) was 8 of 8.
